From PMC6168497

Biological target: 3xHA-MARF1 (transgenic full-length Drosophila MARF1) (Drosophila)
Assay: co-IP; anti-HA magnetic beads; ovary lysates of flies expressing 3xHA-MARF1 (full-length or fragments) and of w1118 negative control; lysis buffer 25 mM Tris-HCl pH 7.4, 150 mM NaCl, 1 mM EDTA, 1% IGEPAL CA-630, 5% glycerol; with or without 0.1 ug/ml RNase A; 4 °C overnight; Western blot

binding: binds
B1: Not2 (protein, UniProt Q94547 1-585)
chain: MANLNFQQPPRSIANAALAGRTTGGFGGSSLAGHVTPTSGMFQTDFANSYPGTANYGQAPQQQQQQQQQPQLSPNRNAQLSVGGPAISSGNRNANLFGQRQFVERRAMQGLGSGPMSNMGNFMQTGRGGYGTGGGGGGPLNNFHVFGGGGGSDTSTPALLDPTEFPSLTNARGQNDQTLPQSNPLQPPGSKPYGNFFTSFGMVKQPTSEQSEFTMSNEDFPALPGTQNSDGTTNAVGSVAGTGGSGGASTENHLDGTEKPMNSIVVSGSASGSSGSNVGVVGGNGLGAVGSGIGGLAVGGGGGAGSSGGGGVGGNAASGVVGGSHVGLVGSNSGIGGVNSVPNSNAMMGVGGGLGSGSGSSGSGAGGEHLNDNSSNDKLVKSGVQTSPDGKVTNIPATMVNNQFGMVGLLTFIRAAETDPNLVTLSLGTDLTGLGLNLNSQESLHTTFAGPFVAQPCRAQDVEFNVPPEYLINFAIRDKLTAPVLKKLQEDLLFFLFYTNIGDMMQLMAAAELHSREWRYHVEEKIWITRIPGIDQYEKNGTKERGTFYYFDAQSWKRLSKVFQIDPEKLDKCPNISAFMNGQSV

No constants are given. Whether binding was seen depends on the method and setting. Binding seen in cells or lysates may run through a third protein. Binding can be weak; no strength is given.
